Measurements taken from article PMC11993990.
Results are given in words; binding and its absence hold for the method and conditions named. In cells and extracts the contact can be indirect. Some binding calls cover weakened binding; strength is not graded here. Sequences can lack the tags named with a protein.

The chains behind the UniProt entries cited, without tags or fusion partners. Residues count along the entry.
UniProt P10852: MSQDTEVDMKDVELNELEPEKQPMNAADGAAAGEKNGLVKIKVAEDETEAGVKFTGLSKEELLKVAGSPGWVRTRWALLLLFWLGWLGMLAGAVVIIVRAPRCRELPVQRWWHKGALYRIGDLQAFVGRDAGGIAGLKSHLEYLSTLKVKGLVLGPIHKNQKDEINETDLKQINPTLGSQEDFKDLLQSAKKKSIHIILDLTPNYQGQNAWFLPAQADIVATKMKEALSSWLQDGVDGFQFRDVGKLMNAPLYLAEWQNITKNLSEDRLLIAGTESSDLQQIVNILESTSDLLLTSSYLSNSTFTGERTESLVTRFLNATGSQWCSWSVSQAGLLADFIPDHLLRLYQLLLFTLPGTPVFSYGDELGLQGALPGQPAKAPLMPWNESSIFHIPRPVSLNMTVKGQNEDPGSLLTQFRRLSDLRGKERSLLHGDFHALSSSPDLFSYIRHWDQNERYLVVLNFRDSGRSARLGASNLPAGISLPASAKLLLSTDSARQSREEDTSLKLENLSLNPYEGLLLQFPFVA
UniProt P29317, residues 24-976: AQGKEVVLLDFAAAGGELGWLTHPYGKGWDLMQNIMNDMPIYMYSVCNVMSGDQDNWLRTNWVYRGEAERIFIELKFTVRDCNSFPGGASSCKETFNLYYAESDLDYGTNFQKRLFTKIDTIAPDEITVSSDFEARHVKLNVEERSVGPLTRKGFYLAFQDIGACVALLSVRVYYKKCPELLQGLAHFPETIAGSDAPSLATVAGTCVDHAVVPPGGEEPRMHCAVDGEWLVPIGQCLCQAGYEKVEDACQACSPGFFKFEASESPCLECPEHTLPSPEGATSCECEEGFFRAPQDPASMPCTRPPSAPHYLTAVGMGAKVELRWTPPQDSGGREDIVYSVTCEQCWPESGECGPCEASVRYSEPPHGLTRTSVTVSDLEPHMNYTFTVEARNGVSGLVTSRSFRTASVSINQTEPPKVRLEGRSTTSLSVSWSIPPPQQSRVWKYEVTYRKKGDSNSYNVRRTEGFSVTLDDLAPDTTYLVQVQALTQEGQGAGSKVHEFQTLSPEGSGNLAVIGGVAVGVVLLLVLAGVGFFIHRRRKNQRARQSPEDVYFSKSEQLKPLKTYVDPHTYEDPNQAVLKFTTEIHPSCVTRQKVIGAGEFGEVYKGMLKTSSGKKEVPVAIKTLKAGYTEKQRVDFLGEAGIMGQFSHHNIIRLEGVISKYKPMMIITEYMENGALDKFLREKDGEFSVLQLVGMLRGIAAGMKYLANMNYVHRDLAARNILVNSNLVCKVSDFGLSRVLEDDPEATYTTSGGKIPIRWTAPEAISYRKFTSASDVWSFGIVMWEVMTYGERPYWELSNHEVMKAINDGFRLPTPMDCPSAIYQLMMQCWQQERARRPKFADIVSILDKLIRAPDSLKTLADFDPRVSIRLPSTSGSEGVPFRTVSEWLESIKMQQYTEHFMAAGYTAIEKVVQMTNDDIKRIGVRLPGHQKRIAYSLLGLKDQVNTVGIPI

Key:
[1] = molecular target: T1, Hag epitope-tagged R-RAS2 transiently transfected in BT-549 cells (UniProt P62070); assay: co-IP; human BT-549 cells transfected with Hag-tagged R-RAS2, 0.5% Brij96 lysate; anti-Hag (12CA5) or IgG2b isotype control on Protein G Sepharose, overnight at 4 °C; blots for Epha2, CD44, CD98 and Hag
T1 sequence: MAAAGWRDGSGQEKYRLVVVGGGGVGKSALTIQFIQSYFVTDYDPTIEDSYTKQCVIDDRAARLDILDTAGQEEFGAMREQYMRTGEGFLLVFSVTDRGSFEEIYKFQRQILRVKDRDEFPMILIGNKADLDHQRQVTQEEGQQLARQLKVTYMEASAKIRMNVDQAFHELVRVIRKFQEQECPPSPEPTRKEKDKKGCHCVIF

[2] = molecular target: T2, human wild-type R-RAS2 tagged at the N-terminus with a hemagglutinin (Hag) epitope, from the Rosa26-RRAS2fl/fl knock-in (human) (UniProt P62070); assay: co-IP; CBM-MBC21 mouse cells, 0.5% Brij96 lysate; anti-Hag (12CA5) or IgG2b isotype control on Protein G Sepharose, overnight at 4 °C; blots for Epha2, CD44, CD98 and Hag
T2 sequence: T1 sequence

binding [1] | binding [2] | Substance
binds | – | CD98 heavy chain (SLC3A2), human, in BT-549 cells (from UniProt P08195 1-529)
– | binds | CD98 heavy chain (Slc3a2), mouse (from UniProt P10852 1-526)
binds | – | Epha2 receptor tyrosine kinase, human, in BT-549 cells (from UniProt P29317 24-976)
